Data on 1 substance can be found in article PMC8632885.

These are yes or no findings as the source states them, for the method shown. Binding seen in cells or lysates may run through a third protein. A yes stands for co-enrichment or nearness to the bait. Other partners may have been found.

The target of assay [1] is T1, AtMP1 (first antimicrobial peptide from Anabas testudineus skin mucus fraction 2), biotinylated (Anabas testudineus).
T1 sequence (peptide, biotin (NH2-reactive biotin, Biotin Labelling Kit NH2)): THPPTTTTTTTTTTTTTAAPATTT
Nature of the assay: affinity purification with mass spectrometry; biotinylated peptide as bait, streptavidin beads, overnight at 4 °C; lysates (total, membrane, mitochondrial) of MCF7 and MDA-MB-231 in RIPA buffer; the results say that the cells were treated with the biotinylated peptides for 48 h before lysis; bands cut from SDS-PAGE by expected size, LC-MS/MS, Mascot score >= 20; LC-MS data of the samples combined; only the target purified.

The target in assay [2] is T2, AtMP2 (second antimicrobial peptide from Anabas testudineus skin mucus fraction 2), biotinylated (Anabas testudineus).
T2 sequence (peptide, biotin (NH2-reactive biotin, Biotin Labelling Kit NH2)): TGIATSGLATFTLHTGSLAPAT
The assay is described as above.

For the substance p53 (from UniProt P04637 1-393), the binding result in assay [1] and in assay [2] was “binds” in each case.
